From PMC3406032, “Tristetraprolin Inhibits Poly(A)-Tail Synthesis in Nuclear mRNA that Contains AU-Rich Elements by Interacting with Poly(A)-Binding Protein Nuclear 1” (PLoS ONE, 2012)
No constants are given. Whether binding was seen depends on the method and setting. In cells and extracts the contact can be indirect. Some results given as binding are weak or reduced against the parent protein; the word gives no strength. For some of these results: Sequences can lack the tags named with a protein.

T1: Flag-TTP@15-306 (mouse) (UniProt P22893)
T1 sequence: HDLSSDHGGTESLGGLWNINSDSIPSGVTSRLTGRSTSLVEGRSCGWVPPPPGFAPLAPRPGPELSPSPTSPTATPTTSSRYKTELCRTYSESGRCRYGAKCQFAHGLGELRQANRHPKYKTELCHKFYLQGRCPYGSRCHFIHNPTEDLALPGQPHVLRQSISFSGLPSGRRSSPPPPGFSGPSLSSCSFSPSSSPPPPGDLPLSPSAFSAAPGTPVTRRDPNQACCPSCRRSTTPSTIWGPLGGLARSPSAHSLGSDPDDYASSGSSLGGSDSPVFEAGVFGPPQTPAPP

T2: Flag-TTP@15-186 (mouse) (UniProt P22893)
T2 sequence: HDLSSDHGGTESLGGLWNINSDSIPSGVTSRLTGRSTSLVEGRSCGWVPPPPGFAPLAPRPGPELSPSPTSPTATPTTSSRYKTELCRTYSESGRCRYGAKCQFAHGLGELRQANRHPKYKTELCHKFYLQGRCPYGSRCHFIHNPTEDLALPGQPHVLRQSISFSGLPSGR

T3: Flag-TTP@15-319 (mouse) (UniProt P22893)
T3 sequence: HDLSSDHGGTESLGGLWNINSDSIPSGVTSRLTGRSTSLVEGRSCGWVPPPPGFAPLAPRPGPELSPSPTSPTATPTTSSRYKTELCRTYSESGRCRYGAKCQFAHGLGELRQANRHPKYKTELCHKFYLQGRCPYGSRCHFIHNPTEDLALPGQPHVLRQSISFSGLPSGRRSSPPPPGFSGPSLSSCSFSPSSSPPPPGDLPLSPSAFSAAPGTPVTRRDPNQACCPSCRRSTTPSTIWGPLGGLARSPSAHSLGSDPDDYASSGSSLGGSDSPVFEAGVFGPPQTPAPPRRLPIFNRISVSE

T4: endogenous PABPN1 of RAW264.7 cells (mouse (endogenous in RAW264.7)) (UniProt Q8CCS6)
T4 sequence: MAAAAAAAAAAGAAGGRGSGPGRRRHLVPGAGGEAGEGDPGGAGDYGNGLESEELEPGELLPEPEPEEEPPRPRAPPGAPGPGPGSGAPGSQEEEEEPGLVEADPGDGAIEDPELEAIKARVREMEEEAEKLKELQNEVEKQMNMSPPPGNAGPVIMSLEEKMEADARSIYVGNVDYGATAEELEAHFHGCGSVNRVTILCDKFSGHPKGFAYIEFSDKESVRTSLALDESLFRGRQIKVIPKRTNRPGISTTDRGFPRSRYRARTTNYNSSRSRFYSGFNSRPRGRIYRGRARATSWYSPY

B1: endogenous PABPN1 of HEK293T cells (protein, UniProt Q86U42 1-306)
chain: MAAAAAAAAAAGAAGGRGSGPGRRRHLVPGAGGEAGEGAPGGAGDYGNGLESEELEPEELLLEPEPEPEPEEEPPRPRAPPGAPGPGPGSGAPGSQEEEEEPGLVEGDPGDGAIEDPELEAIKARVREMEEEAEKLKELQNEVEKQMNMSPPPGNAGPVIMSIEEKMEADARSIYVGNVDYGATAEELEAHFHGCGSVNRVTILCDKFSGHPKGFAYIEFSDKESVRTSLALDESLFRGRQIKVIPKRTNRPGISTTDRGFPRARYRARTTNYNSSRSRFYSGFNSRPRGRVYRGRARATSWYSPY
B2: endogenous TTP of RAW264.7 cells (protein, UniProt P22893 1-319)
chain: MDLSAIYESLQSMSHDLSSDHGGTESLGGLWNINSDSIPSGVTSRLTGRSTSLVEGRSCGWVPPPPGFAPLAPRPGPELSPSPTSPTATPTTSSRYKTELCRTYSESGRCRYGAKCQFAHGLGELRQANRHPKYKTELCHKFYLQGRCPYGSRCHFIHNPTEDLALPGQPHVLRQSISFSGLPSGRRSSPPPPGFSGPSLSSCSFSPSSSPPPPGDLPLSPSAFSAAPGTPVTRRDPNQACCPSCRRSTTPSTIWGPLGGLARSPSAHSLGSDPDDYASSGSSLGGSDSPVFEAGVFGPPQTPAPPRRLPIFNRISVSE

Tests used:
Flag-TTP@15-306 (mouse) = target: T1, Flag-TTP@15-306 (mouse); experiment: co-IP; cell lysates / whole-cell extracts of HEK293T cells transfected with Flag-TTP constructs (Figure S3: with Flag-p38 and dominantly negative Flag-MKK3); anti-Flag M2 agarose; blot with anti-PABPN1
Flag-TTP@15-186 (mouse) = target: T2, Flag-TTP@15-186 (mouse); experiment: as above
Flag-TTP@15-319 (mouse) = target: T3, Flag-TTP@15-319 (mouse); experiment: as above
[1] = target: T4, endogenous PABPN1 of RAW264.7 cells (mouse (endogenous in RAW264.7)); experiment: co-IP; whole-cell extracts of RAW264.7 cells, untreated or 100 ng/ml LPS for 6 h; lysates treated with calf intestinal phosphatase; 150 mM NaCl; immunoprecipitation with anti-PABPN1 at 4°C for 3 h; blot with anti-TTP

Binder	binding (Flag-TTP@15-306 (mouse))	binding (Flag-TTP@15-186 (mouse))	binding (Flag-TTP@15-319 (mouse))	binding [1]
B1	binds	binds	binds	–
B2	–	–	–	binds
